Results deposited as PubChem BioAssay AID1224830 (NIAID, 2016).
The deposit covers about 18,000 reagents; below is a random part of them. About 2,900 of them (16%) count as active. 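Calls are made per well; low scores hint the gene aids the LPS response, high scores that it dampens it.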 A number with no mark means an inactive call. Repeated entries: four replicate wells of each siRNA pool. No sequences are given here.

- Screen: 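Regulators of TLR4 signalling towards TNF-alpha in macrophage-like cells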 (primary screen)
- System: human THP-1 monocytic leukaemia cells, TNF dual-luciferase reporter clone, PMA-differentiated to macrophage-like cells
- Reagent: siRNA pool against human genes, 50 nM
- Time to read-out: LPS for 4 h, given about 3 days after siRNA transfection
- Challenge: bacterial LPS (TLR4 ligand), 10 ng/ml
- Measured: 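Ratio of firefly to renilla light, scaled to the plate median and expressed as a robust z-score per replicate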
- Reading the numbers: TNF reporter robust z-score: higher = stronger TNF reporter response to LPS
- Rule for the call: 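Each well counts as active if its z-score is over 2.8 or under -1.5; controls are left without a call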

| gene symbol | TNF reporter robust z-score |
| --- | --- |
| CD1C (CD1c molecule) | 1.21 |
| CD1C (CD1c molecule) | -0.45 |
| CD1C (CD1c molecule) | -0.26 |
| CD1C (CD1c molecule) | -0.59 |
| UBALD1 (UBA like domain containing 1) | -1.98 (active) |
| UBALD1 (UBA like domain containing 1) | -1.5 |
| UBALD1 (UBA like domain containing 1) | -1.59 (active) |
| UBALD1 (UBA like domain containing 1) | -1.24 |
| GPR75 (G protein-coupled receptor 75) | -0.36 |
| GPR75 (G protein-coupled receptor 75) | -0.34 |
| GPR75 (G protein-coupled receptor 75) | -0.65 |
| GPR75 (G protein-coupled receptor 75) | 0.82 |
| AFAP1L2 (actin filament associated protein 1 like 2) | 3.84 (active) |
| AFAP1L2 (actin filament associated protein 1 like 2) | 2.93 (active) |
| AFAP1L2 (actin filament associated protein 1 like 2) | -0.62 |
| AFAP1L2 (actin filament associated protein 1 like 2) | 0.26 |
| SF1 (splicing factor 1) | 0.16 |
| SF1 (splicing factor 1) | -0.06 |
| SF1 (splicing factor 1) | 0.25 |
| HELZ (helicase with zinc finger) | -0.23 |
| HELZ (helicase with zinc finger) | 0.68 |
| HELZ (helicase with zinc finger) | -0.3 |
| HELZ (helicase with zinc finger) | 0.84 |
| MAGEB4 (MAGE family member B4) | 0.1 |
| MAGEB4 (MAGE family member B4) | 1.7 |
| MAGEB4 (MAGE family member B4) | -0.06 |
| MAGEB4 (MAGE family member B4) | 0.91 |

3 successive records from above, for reference:
| gene symbol | TNF reporter robust z-score |
| --- | --- |
| SF1 (splicing factor 1) | 0.25 |
| HELZ (helicase with zinc finger) | -0.23 |
| HELZ (helicase with zinc finger) | 0.68 |

Further results follow:
| gene symbol | TNF reporter robust z-score |
| --- | --- |
| WASF1 (WASP family member 1) | 2.48 |
| WASF1 (WASP family member 1) | 1.98 |
| WASF1 (WASP family member 1) | 3.14 (active) |
| WASF1 (WASP family member 1) | 1.3 |
| DUSP21 (dual specificity phosphatase 21) | 0.42 |
| DUSP21 (dual specificity phosphatase 21) | 3.5 (active) |
| DUSP21 (dual specificity phosphatase 21) | 0.67 |
| DUSP21 (dual specificity phosphatase 21) | -0.13 |
| SCRN3 (secernin 3) | 0.12 |
| SCRN3 (secernin 3) | -0.12 |
| SCRN3 (secernin 3) | -0.6 |
| SCRN3 (secernin 3) | 0.23 |
| TADA3 (transcriptional adaptor 3) | 1.14 |
| TADA3 (transcriptional adaptor 3) | 1.15 |
| TADA3 (transcriptional adaptor 3) | -0.31 |
| TADA3 (transcriptional adaptor 3) | 0.12 |
| TCIRG1 | -1.16 |
| TCIRG1 | 0.07 |
| TCIRG1 | -1.06 |
| TCIRG1 | -0.7 |
